Measurements from PubChem BioAssay AID330 (DTP/NCI, 2004).
The list does not hold the whole screen: it gathers tests that were run many times, whatever their T/C, doses with no T/C, and many T/C values between a quarter and a half above the control. Other doses and runs of a compound stand elsewhere. T/C is the treated group as % of the vehicle group. Some entries give survivors of the animals treated and no T/C: the source files T/C as zero there, which appears to mark a toxic dose or a test without result, not a measured value. Some doses without a T/C left all or most animals alive at the check, yet need not have been tolerated: survival well below the control is almost never listed, so the zero probably covers shortened survival too. Survivors were counted at the toxicity check, usually on the fifth day, unless a day is given; later deaths do not show. Schedule codes are those of the source, taken here to give the interval after Q, in days (D) or hours (H), and the number of doses after X. Some entries hold several experiments; the results are listed from low to high. Some structures stand for samples that the source files as different forms (salt, stereo form or complex); doses refer to the form tested. Where survival is the endpoint, the PubChem record calls one and a half times the control and up active, and a quarter to a half above the control has no call in these data; cut-offs in other NCI protocols can differ. Marks such as (2×) give the number of equal values in this list. Some T/C values are followed by the survivors on the day toxicity was checked, most often the fifth; where none is given, no animal had died by that day.

Tested on: P388 leukemia ip, CD2F1 mice, survival T/C
Test: NCI In Vivo Anticancer Drug Screen. Data for tumor model P388 Leukemia (intraperitoneal) in CD2F1 (CDF1) mice
Details: T/C endpoint: median survival time, higher T/C = longer survival
[1] = dose: 200.0 mg/kg/injection, schedule: Q01DX009 (ip), vehicle: Klucel (hydroxypropylcellulose) (HPC)
[2] = dose: 200.0 mg/kg/injection, schedule: Q01DX005 (ip), vehicle: saline
[3] = dose: 400.0 mg/kg/injection, schedule: Q04DX003 (ip), vehicle: Klucel (hydroxypropylcellulose) (HPC)
[4] = dose: 400.0 mg/kg/injection, schedule: Q01DX001 (ip), vehicle: saline with Tween-80
[5] = dose: 50.0 mg/kg/injection, schedule: Q01DX009 (ip), vehicle: saline with Tween-80
[6] = dose: 100.0 mg/kg/injection, schedule: Q01DX009 (ip), vehicle: saline with Tween-80
[7] = dose: 200.0 mg/kg/injection, schedule: Q01DX009 (ip), vehicle: saline with Tween-80
[8] = dose: 200.0 mg/kg/injection, schedule: Q04DX003 (ip), vehicle: saline
[9] = dose: 25.0 mg/kg/injection, schedule: Q01DX009 (ip), vehicle: saline with Tween-80
[10] = dose: 50.0 mg/kg/injection, schedule: Q01DX009 (ip), vehicle: saline
[11] = dose: 200.0 mg/kg/injection, schedule: Q01DX009 (ip), vehicle: saline
[12] = dose: 60.0 mg/kg/injection, schedule: Q01DX005 (ip), vehicle: Klucel (hydroxypropylcellulose) (HPC)
[13] = dose: 120.0 mg/kg/injection, schedule: Q01DX005 (ip), vehicle: Klucel (hydroxypropylcellulose) (HPC)
[14] = dose: 240.0 mg/kg/injection, schedule: Q01DX005 (ip), vehicle: Klucel (hydroxypropylcellulose) (HPC)
[15] = dose: 60.0 mg/kg/injection, schedule: Q01DX005 (ip), vehicle: saline with Tween-80
[16] = dose: 120.0 mg/kg/injection, schedule: Q01DX005 (ip), vehicle: saline with Tween-80
[17] = dose: 240.0 mg/kg/injection, schedule: Q01DX005 (ip), vehicle: saline with Tween-80
[18] = dose: 200.0 mg/kg/injection, schedule: Q01DX005 (ip), vehicle: Klucel (hydroxypropylcellulose) (HPC)

SMILES: O=C1c2ccccc2C(=O)C1(Br)C(Br)c1ccccc1 (centres undefined)
- survivor count [1]: 5 of 6
- survivor count (dose: 400.0 mg/kg/injection, schedule: Q01DX009 (ip), vehicle: Klucel (hydroxypropylcellulose) (HPC)): 5 of 6

SMILES: O=C(NNS(=O)(=O)CCC(NC(=O)OCc1ccccc1)C(=O)OCc1ccccc1)OCc1ccccc1 (centres undefined)
- survivor count (dose: 200.0 mg/kg/injection, schedule: Q01DX009 (ip), vehicle: other): 6 of 6

SMILES: [NH-]CC[N-]CCO.[NH-]CC[N-]CCO.[NH-]CC[N-]CCO.[Ni]
- survivor count (dose: 50.0 mg/kg/injection, schedule: Q01DX005 (ip), vehicle: saline): 5 of 5
- survivor count (dose: 100.0 mg/kg/injection, schedule: Q01DX005 (ip), vehicle: saline): 1 of 5
- survivor count [2]: 0 of 5

SMILES: c1ccc2c3c(ccc2c1)CC1CCCN1C3 (centres undefined)
- survivor count [3]: 3 of 6

SMILES: Cc1csc2cc(Br)c3ccccc3c12
- survivor count [4]: 6 of 6

SMILES: COC(=O)c1cc(=O)n(-c2ccccc2)c(SC)n1
- survivor count (dose: 25.0 mg/kg/injection, schedule: Q04DX002 (ip), vehicle: Klucel (hydroxypropylcellulose) (HPC)): 6 of 6
- survivor count (dose: 200.0 mg/kg/injection, schedule: Q04DX002 (ip), vehicle: Klucel (hydroxypropylcellulose) (HPC)): 5 of 5
- survivor count (dose: 400.0 mg/kg/injection, schedule: Q04DX002 (ip), vehicle: Klucel (hydroxypropylcellulose) (HPC)): 0 of 5

SMILES: CC(=Nc1ccccc1)Nc1ccccc1.[Cu+2]
- survivor count [5]: 5 of 6
- survivor count [6]: 3 of 6
- survivor count [7]: 5 of 6

SMILES: CC(Cc1ccccc1)N(C)C(=O)c1ccc[n+](C)c1 (centres undefined)
- survivor count [2]: 1 of 6

SMILES: Cc1ccc(Cl)cc1S
- survivor count [8]: 6 of 6

SMILES: O=[N+]([O-])c1cc([N+](=O)[O-])c(N2CC2)cc1C1=NCCO1
- survivor count [1]: 3 of 6

SMILES: O=C(Nc1cccc2ccccc12)N1c2ccccc2SC12CCCC2
- survivor count (dose: 12.5 mg/kg/injection, schedule: Q01DX009 (ip), vehicle: saline with Tween-80): 6 of 6
- survivor count [9]: 6 of 6

SMILES: COc1ccc(NC(=O)C(Cl)Cl)ccc1=O
- survivor count [6]: 5 of 6
- survivor count [7]: 3 of 6

SMILES: O=NN1CCCNC1=O
- T/C (dose: 10.0 mg/kg/injection, schedule: Q01DX009 (ip), vehicle: saline with Tween-80): 127 % of control
- T/C (dose: 25.0 mg/kg/injection, schedule: Q04DX003 (ip), vehicle: saline): 136 % of control
- survivor count (dose: 150.0 mg/kg/injection, schedule: Q01DX009 (ip), vehicle: saline with Tween-80): 5 of 6
- T/C (dose: 150.0 mg/kg/injection, schedule: Q04DX003 (ip), vehicle: saline): 125 % of control
- survivor count [8]: 4 of 6
- survivor count (dose: 400.0 mg/kg/injection, schedule: Q04DX003 (ip), vehicle: saline): 1 of 6

SMILES: O=C1CSc2ncccc2N1c1ccc([N+](=O)[O-])cn1
- survivor count [10]: 5 of 6

SMILES: CC(=O)[C@@]1(O)CC[C@H]2[C@@H]3C=C(C)C4=CC(=O)CC[C@]4(C)[C@@]3(F)[C@@H](O)C[C@@]21C
- survivor count [6]: 6 of 6
- survivor count [7]: 6 of 6
- survivor count (dose: 400.0 mg/kg/injection, schedule: Q01DX009 (ip), vehicle: saline with Tween-80): 5 of 6

SMILES: C=CCN(CC=C)Sc1cccc([N+](=O)[O-])c1
- survivor count [11]: 1 of 6

SMILES: CC1(C)N=C(N)N=C(N)N1c1ccc(C(C#N)CCCc2ccccc2)cc1 (centres undefined)
- survivor count [12]: 0 of 6
- survivor count [13]: 0 of 6
- survivor count [14]: 0 of 6

SMILES: CC12CC3CC(C)(C1)CC(SC(=N)N)(C3)C2
- survivor count [15]: 0 of 6
- survivor count [16]: 0 of 6
- survivor count [17]: 0 of 6

SMILES: COc1ccc2c(C#N)cc3c(c[n+](C)c4ccccc34)c2c1
- survivor count (dose: 50.0 mg/kg/injection, schedule: Q04DX003 (ip), vehicle: distilled water + Tween-80): 6 of 6
- survivor count (dose: 100.0 mg/kg/injection, schedule: Q04DX003 (ip), vehicle: distilled water + Tween-80): 5 of 6
- survivor count (dose: 200.0 mg/kg/injection, schedule: Q04DX003 (ip), vehicle: distilled water + Tween-80): 1 of 6
- survivor count (dose: 400.0 mg/kg/injection, schedule: Q04DX003 (ip), vehicle: distilled water + Tween-80): 0 of 6

SMILES: Cc1ccc(C(=O)CC[N+](C)(C)C)cc1
- survivor count [10]: 3 of 6
- survivor count (dose: 100.0 mg/kg/injection, schedule: Q01DX009 (ip), vehicle: saline): 0 of 6
- survivor count [11]: 0 of 6

SMILES: c1ccc2c(c1)NCCOCCNc1ccccc1OCCNCCO2
- survivor count (dose: 200.0 mg/kg/injection, schedule: Q01DX001 (ip), vehicle: saline with Tween-80): 6 of 6
- survivor count [4]: 0 of 6

SMILES: NCCCCCCN1CCN(c2cccc(Cl)c2)CC1
- T/C [11]: 138 % of control [5 of 6 alive]

SMILES: c1cc(C2=NCCN2)ccc1Nc1ccc(-c2cc3ccc(C4=NCCN4)cc3[nH]2)cc1
- T/C (dose: 1.87 mg/kg/injection, schedule: Q01DX005 (ip), vehicle: Klucel (hydroxypropylcellulose) (HPC)): 148 % of control
- survivor count [12]: 1 of 6
- survivor count [13]: 0 of 6
- survivor count [14]: 0 of 6

SMILES: COc1ccc(NC(C)=NC(C)C)cc1
- survivor count [9]: 6 of 6
- survivor count (dose: 100.0 mg/kg/injection, schedule: Q01DX009 (ip), vehicle: saline + Tween-80 + alcohol): 4 of 6
- survivor count (dose: 200.0 mg/kg/injection, schedule: Q01DX009 (ip), vehicle: saline + Tween-80 + alcohol): 0 of 6

SMILES: COC(=O)c1nc(N)nc(C(=O)OC)c1C(=O)c1ccncc1
- survivor count [14]: 0 of 6

SMILES: O=C1/C(=C/c2cccc([N+](=O)[O-])c2)SC(=S)N1C1CC1
- survivor count [18]: 5 of 5

SMILES: CSc1ncc(Br)c(Sc2nc(N)nc3nc[nH]c23)n1
- T/C (dose: 3.0 mg/kg/injection, schedule: Q01DX009 (ip), vehicle: saline with Tween-80): 140 % of control
- T/C (dose: 6.25 mg/kg/injection, schedule: Q01DX009 (ip), vehicle: saline with Tween-80): 140 % of control
- survivor count [5]: 6 of 6

SMILES: C1CNC(N2CCN(C3=NCCN3)CC2)=N1
- survivor count [18]: 1 of 5

SMILES: CNC(=O)Oc1ccc(/C=N/Sc2cccc([N+](=O)[O-])c2)cc1
- survivor count [7]: 6 of 6

SMILES: COc1ccc(NC(CCN2CCN(CCC(=NC(C)(C)C)Nc3ccc(OC)cc3)CC2)=NC(C)(C)C)cc1
- survivor count [18]: 2 of 6
- T/C [1]: 128 % of control [5 of 6 alive]
- survivor count [11]: 0 of 6

SMILES: CCCCCCCCCCCCCCCC(=O)N(C(C)CCCN(CC)CC)C(C)CCCN(CC)CC (centres undefined)
- survivor count (dose: 25.0 mg/kg/injection, schedule: Q01DX009 (ip), vehicle: water): 6 of 6

SMILES: CCN1C(Cl)=NS(=O)(=O)c2ccccc21
- survivor count [15]: 4 of 6
- survivor count [16]: 1 of 6
- survivor count [17]: 0 of 6

SMILES: CC(C)c1ccc(C(O)C2CC2)cc1 (centres undefined)
- survivor count (dose: 200.0 mg/kg/injection, schedule: Q04DX003 (ip), vehicle: saline with Tween-80): 3 of 6

SMILES: O=C1CC(Cl)(CS(F)(F)(F)(F)F)O1 (centres undefined)
- survivor count (dose: 100.0 mg/kg/injection, schedule: Q01DX005 (ip), vehicle: saline + alcohol): 0 of 5
- survivor count (dose: 100.0 mg/kg/injection, schedule: Q01DX005 (ip), vehicle: saline with Tween-80): 0 of 5 and 2 of 5
- survivor count (dose: 200.0 mg/kg/injection, schedule: Q01DX005 (ip), vehicle: saline with Tween-80): 0 of 5

SMILES: Nc1[nH]c(=S)[nH]c(=O)c1N=Cc1ccc2c(c1)OCO2
- T/C [3]: 133 % of control (2×)
